Assay results from paper PMC11447181 (Nature Communications, 2024).
These are yes or no findings as the source states them, for the method shown.

The chains behind the UniProt entries cited, without tags or fusion partners.
UniProt Q9BZV2: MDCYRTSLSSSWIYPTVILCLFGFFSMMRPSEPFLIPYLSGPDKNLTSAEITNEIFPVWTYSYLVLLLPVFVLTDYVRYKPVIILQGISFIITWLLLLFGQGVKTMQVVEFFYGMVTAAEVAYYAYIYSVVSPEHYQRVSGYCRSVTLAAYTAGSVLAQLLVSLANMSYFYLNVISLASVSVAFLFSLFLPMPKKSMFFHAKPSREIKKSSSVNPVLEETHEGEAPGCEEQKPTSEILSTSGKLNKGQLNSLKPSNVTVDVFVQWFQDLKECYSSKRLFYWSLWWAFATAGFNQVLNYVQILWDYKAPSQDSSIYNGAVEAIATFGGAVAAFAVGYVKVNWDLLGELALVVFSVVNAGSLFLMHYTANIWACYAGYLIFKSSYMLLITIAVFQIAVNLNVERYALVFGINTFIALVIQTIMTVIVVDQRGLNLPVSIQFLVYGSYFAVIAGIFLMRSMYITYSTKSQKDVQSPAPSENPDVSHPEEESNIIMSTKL

Molecular target: full-length, wildtype human SLC19A3 (hSLC19A3-wt) (human) (UniProt Q9BZV2)
Experiment: SEC; purified hSLC19A3-wt on Superdex S200 10/300 Increase in 20 mM Tris-HCl pH7.4, 150 mM NaCl, 0.002% LMNG, 0.0002% CHS; both purified

binding: no binding
Substance: full-length, wildtype human SLC19A3 (hSLC19A3-wt) (from UniProt Q9BZV2 1-496)
